Patent US20210198366A1
No constants are given. Whether binding was seen depends on the method and setting. Some results given as binding are weak or reduced against the parent protein; the word gives no strength.

Target: T1, human B7-H7 (soluble analyte in SPR) (human) (UniProt Q9UM44)
T1 sequence: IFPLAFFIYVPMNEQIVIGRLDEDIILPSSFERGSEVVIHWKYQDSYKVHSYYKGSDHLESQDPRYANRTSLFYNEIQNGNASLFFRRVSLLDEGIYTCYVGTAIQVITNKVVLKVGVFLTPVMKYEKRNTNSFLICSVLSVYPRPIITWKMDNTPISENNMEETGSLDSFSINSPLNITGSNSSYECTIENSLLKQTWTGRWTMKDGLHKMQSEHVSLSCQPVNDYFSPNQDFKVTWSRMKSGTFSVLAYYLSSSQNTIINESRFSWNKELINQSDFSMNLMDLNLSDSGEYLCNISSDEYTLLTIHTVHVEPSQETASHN
Experiment: SPR (Biacore)

binding: binds
B1: humanized anti-B7-H7 antibody Hz2D7 (antibody, human IgG1, kappa, V domains shown)
VH: QVQLVQSGAEVKKPGASVKVSCKTSGYTFTEYTMHWVRQAPGQGLEWMGGINPNNYGAPYNQKFKGRVTMTVDTSISTAYMELSRLRSDDTAVYYCASGGYYFDYWGQGTLVTVSS
VL: DIQMTQSPSSLSASVGDRVTITCKASQDVGTAVAWYQQKPGKAPKLLIYWAFTRHTGVPSRFSGSGSGTDYTLTISSLQPEDFATYYCQQHYDTPFTFGQGTKVEIKR
